From patent publication US20050244921A1
Results are given in words; binding and its absence hold for the method and conditions named. Some results given as binding are weak or reduced against the parent protein; the word gives no strength. Sequences can lack the tags named with a protein.

Target: Polyhistidine-tagged DsRed K83R (Discosoma sp.)
Assay: SDS-PAGE, 200 mM DTT, not heated

B1: Polyhistidine-tagged DsRed K83R (protein)
chain: MRGSHHHHHHGMASMTGGQQMGRDLYDDDDKDPMRSSKNVIKEFMRFKVRMEGTVNGHEFEIEGEGEGRPYEGHNTVKLKVTKGGPLPFAWDILSPQFQYGSKVYVKHPADIPDYRKLSFPEGFKWERVMNFEDGGVVTVTQDSSLQDGCFIYKVKFIGVNFPSDGPVMQKKTMGWEASTERLYPRDGVLKGEIHKALKLKDGGHYLVEFKSIYMAKKPVQLPGYYYVDSKLDITSHNEDYTIVEQYERTEGRHHLFL
With B1 the binding was “binds”.
